This is one part of the list.

The chains behind the UniProt entries cited, without tags or fusion partners. Where a name states a change or a piece, a line headed by the entry shows the natural chain unless it says otherwise.
UniProt P55789: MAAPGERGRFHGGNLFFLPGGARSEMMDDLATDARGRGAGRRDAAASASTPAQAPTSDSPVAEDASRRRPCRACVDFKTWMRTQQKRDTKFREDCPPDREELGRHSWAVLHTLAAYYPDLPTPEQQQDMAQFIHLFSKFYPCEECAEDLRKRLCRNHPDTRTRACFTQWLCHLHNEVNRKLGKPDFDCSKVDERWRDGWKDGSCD
UniProt Q8TB36: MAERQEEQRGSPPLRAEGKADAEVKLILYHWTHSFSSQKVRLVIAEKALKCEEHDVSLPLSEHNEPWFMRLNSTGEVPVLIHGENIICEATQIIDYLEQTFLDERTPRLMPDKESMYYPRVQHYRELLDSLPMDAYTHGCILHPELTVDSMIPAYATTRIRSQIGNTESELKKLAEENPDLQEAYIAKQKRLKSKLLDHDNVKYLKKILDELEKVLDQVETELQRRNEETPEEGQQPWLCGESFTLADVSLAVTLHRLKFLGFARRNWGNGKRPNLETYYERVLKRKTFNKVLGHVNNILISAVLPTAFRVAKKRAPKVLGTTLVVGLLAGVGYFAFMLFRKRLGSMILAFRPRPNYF
UniProt P09958, whole entry, looked up: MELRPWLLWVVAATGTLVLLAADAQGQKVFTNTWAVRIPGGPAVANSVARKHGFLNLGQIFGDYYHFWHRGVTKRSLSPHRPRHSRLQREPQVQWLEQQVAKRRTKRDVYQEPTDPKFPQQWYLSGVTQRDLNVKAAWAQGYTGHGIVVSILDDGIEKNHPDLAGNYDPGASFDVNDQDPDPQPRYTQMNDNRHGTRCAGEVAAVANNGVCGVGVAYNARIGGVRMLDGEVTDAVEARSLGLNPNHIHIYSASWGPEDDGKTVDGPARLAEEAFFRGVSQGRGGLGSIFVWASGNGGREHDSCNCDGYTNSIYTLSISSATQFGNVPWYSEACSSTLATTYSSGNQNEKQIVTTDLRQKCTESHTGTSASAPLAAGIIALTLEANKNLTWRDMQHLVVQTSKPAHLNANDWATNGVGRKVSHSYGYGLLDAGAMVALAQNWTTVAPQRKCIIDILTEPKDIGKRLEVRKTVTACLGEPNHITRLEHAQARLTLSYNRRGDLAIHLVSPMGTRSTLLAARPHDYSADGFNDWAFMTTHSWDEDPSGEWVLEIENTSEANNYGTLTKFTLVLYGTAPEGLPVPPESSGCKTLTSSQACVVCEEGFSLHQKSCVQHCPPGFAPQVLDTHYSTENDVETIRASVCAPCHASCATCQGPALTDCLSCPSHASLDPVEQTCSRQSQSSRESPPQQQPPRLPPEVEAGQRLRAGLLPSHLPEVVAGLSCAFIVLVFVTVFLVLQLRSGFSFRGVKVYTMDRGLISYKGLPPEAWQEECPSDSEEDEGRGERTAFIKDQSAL
UniProt P50395: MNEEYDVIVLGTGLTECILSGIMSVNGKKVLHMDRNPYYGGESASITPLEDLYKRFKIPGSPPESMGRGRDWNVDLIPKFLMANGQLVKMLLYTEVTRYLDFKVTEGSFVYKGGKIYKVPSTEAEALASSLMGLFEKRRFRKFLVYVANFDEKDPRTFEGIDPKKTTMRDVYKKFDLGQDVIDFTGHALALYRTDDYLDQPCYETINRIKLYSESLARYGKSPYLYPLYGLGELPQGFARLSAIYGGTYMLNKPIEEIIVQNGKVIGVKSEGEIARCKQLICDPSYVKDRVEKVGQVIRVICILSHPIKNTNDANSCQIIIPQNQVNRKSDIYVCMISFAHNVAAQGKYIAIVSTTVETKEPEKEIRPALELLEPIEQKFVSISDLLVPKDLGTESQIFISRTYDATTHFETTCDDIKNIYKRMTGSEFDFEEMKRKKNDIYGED
UniProt Q8WTR4: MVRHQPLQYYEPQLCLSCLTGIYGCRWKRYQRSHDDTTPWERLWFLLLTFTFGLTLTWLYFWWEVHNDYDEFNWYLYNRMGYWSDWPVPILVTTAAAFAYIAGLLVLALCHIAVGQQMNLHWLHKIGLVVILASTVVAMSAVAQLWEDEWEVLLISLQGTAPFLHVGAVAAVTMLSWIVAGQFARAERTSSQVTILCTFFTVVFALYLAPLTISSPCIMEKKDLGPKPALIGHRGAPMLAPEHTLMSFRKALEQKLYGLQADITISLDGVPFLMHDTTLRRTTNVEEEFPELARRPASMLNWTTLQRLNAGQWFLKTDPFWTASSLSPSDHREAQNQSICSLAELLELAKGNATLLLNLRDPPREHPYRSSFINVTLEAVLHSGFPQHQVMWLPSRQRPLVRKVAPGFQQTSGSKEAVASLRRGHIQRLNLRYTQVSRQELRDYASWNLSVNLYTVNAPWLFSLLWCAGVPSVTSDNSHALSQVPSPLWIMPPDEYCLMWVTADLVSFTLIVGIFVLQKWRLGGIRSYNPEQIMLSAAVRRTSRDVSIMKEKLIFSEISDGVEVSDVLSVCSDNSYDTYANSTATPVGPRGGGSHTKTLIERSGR
UniProt P34059: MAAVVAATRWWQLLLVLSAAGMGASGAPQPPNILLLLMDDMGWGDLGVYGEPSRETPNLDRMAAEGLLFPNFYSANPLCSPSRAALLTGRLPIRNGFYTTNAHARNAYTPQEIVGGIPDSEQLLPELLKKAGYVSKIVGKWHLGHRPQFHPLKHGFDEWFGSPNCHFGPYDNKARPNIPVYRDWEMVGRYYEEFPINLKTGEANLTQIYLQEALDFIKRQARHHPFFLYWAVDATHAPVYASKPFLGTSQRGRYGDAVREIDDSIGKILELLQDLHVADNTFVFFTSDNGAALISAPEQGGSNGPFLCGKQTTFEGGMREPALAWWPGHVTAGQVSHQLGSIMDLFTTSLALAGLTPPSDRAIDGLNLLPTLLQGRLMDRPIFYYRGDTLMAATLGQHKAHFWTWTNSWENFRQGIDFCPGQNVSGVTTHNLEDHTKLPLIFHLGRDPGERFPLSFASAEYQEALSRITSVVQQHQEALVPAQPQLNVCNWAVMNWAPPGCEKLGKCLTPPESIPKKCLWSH
UniProt P23769: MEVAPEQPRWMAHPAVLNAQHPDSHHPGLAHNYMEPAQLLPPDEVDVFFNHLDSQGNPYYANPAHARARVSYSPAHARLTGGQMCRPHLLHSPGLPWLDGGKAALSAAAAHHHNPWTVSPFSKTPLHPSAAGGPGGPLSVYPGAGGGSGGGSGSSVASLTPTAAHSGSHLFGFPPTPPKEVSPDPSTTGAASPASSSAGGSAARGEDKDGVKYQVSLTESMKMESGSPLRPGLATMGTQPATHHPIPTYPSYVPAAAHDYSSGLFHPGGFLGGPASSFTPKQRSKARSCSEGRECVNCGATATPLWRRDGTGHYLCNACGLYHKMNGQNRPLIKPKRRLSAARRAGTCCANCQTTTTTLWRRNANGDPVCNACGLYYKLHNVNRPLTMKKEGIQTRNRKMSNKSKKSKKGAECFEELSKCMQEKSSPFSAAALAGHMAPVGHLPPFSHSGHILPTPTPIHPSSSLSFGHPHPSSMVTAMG
UniProt Q9H3K2: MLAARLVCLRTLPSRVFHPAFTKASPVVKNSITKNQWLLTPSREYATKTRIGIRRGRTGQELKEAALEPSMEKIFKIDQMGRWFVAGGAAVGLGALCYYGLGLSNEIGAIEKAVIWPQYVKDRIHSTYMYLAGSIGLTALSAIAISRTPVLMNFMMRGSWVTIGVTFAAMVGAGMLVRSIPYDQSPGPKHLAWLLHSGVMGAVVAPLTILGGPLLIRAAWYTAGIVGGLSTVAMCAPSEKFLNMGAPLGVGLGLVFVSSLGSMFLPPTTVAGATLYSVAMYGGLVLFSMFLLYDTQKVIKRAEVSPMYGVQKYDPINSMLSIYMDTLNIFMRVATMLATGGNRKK
UniProt Q96AE4: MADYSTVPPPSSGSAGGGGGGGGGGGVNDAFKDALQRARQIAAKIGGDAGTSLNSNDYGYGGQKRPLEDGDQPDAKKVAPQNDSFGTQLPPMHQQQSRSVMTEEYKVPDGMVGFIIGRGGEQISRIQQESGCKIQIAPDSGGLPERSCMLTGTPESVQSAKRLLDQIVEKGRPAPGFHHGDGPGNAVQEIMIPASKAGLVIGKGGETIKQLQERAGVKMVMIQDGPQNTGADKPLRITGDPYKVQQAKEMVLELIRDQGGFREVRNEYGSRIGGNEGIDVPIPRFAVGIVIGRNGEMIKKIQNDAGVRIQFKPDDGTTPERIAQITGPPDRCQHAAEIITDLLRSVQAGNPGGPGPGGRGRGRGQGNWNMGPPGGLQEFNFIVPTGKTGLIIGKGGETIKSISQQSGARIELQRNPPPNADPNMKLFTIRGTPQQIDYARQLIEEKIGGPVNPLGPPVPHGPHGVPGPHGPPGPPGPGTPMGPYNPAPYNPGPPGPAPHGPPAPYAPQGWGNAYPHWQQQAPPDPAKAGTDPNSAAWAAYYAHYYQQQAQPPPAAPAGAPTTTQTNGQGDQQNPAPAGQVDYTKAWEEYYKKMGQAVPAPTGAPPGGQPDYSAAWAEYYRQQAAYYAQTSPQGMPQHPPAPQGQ
UniProt Q7L5D6: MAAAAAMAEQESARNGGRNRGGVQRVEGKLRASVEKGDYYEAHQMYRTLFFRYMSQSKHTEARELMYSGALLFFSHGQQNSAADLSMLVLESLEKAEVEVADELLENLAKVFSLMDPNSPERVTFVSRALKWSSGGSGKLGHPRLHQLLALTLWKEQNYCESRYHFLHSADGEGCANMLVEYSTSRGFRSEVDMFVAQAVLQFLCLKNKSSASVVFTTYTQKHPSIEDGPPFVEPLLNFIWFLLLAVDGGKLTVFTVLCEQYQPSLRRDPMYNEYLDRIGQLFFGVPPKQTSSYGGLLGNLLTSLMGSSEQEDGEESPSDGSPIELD
UniProt Q9UN86: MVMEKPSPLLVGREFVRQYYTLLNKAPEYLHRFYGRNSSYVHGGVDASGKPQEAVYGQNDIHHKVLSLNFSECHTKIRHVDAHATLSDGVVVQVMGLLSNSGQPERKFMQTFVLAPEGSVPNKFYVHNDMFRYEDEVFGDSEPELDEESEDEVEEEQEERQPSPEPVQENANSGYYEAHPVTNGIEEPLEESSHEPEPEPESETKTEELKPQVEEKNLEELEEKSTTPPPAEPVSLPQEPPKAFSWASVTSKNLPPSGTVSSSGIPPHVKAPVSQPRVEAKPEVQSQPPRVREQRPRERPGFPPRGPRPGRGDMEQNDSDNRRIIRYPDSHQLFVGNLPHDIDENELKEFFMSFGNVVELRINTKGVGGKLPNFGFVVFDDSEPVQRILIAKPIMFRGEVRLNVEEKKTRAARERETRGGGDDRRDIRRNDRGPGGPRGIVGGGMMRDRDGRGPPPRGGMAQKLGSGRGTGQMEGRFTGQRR
UniProt P51116, whole entry, looked up: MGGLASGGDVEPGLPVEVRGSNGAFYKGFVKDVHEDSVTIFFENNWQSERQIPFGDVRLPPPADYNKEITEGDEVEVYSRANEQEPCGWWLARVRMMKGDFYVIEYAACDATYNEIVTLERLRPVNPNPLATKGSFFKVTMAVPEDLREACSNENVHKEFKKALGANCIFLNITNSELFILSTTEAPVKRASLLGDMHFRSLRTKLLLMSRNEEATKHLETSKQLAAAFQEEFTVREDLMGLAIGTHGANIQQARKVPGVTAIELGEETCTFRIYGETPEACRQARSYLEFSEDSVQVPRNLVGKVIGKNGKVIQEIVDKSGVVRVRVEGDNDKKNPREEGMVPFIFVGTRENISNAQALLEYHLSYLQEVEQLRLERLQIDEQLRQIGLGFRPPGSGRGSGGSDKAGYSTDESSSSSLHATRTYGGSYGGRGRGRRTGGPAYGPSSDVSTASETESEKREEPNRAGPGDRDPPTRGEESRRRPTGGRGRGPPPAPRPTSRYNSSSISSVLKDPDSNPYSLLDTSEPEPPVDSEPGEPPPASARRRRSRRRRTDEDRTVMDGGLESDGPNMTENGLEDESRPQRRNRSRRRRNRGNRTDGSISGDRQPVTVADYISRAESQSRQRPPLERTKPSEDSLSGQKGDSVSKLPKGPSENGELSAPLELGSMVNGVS
UniProt P51114, whole entry, looked up: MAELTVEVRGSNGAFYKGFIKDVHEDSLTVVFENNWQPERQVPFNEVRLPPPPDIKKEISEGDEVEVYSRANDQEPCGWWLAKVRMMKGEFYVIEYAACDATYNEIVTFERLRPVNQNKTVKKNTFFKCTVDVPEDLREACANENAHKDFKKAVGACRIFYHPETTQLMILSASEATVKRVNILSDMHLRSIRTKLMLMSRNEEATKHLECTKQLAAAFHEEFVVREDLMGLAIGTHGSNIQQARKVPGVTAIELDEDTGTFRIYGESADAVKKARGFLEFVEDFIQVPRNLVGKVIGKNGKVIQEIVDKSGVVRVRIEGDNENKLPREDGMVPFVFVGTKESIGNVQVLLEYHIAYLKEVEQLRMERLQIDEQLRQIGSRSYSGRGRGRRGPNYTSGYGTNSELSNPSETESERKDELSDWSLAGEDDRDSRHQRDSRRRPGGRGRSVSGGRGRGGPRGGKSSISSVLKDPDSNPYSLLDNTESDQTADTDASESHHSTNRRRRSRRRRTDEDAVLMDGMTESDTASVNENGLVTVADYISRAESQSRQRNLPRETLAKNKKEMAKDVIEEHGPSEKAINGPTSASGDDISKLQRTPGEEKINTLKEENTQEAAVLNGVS

Our source for the log2 fold change values is the supplement of paper PMC10849652.

Compound in this test: c1cn2cc(-c3ccc4cn[nH]c4c3)nc(Nc3ccc(N4CCOCC4)cc3)c2n1 [entospletinib]
Put plainly: log2 fold change, soluble protein after heating vs DMSO (PISA); higher = thermal stabilisation; K562 cells, 10 uM, 30 min; active = over 0.2 and 3.5 SD of the protein, either way, in both replicates (recomputed). In outline: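 Values are thermal stability changes relative to control samples and are taken from duplicates. They are stated as log2 fold changes. Before quantification by TMTpro 16plex LC-MS/MS with equalised channel sums, K562 cells at 2×10^6 cells/mL were treated with 10 μM compound for 30 min, heated in aliquots for 3 min across 48°C-58°C, pooled, extracted in PBS with 0.5% NP-40 at 4°C, and centrifuged at 21,000xg for 90 min to give the soluble supernatant.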

Regarding GDAP2 (UniProt Q9NXN4), the log2 fold change is inactive: -0.394. As for GFER (UniProt P55789), the figure is inactive: -0.063; as for FSCN1 (UniProt Q16658), inactive: 0.008. The same measure for FUS (UniProt P35637): inactive: 0.106; for GDAP1 (UniProt Q8TB36): inactive: -0.191; for FURIN (UniProt P09958): inactive: 0.02. The same measure for FRMPD3 (UniProt Q5JV73): inactive: 0.025.

As to FXN (UniProt Q16595), the log2 fold change is inactive: 0.066. As for GDI2 (UniProt P50395), the figure is inactive: 0.026; as for FTSJ1 (UniProt Q9UET6), inactive: 0.12; as for GDPD5 (UniProt Q8WTR4), inactive: 0.006. The same measure for FRMD8 (UniProt Q9BZ67): inactive: 0.006. Consider GALNT7 (UniProt H0YAH3), for which the log2 fold change is inactive: -0.043. As for GALNS (UniProt P34059), the figure is inactive: 0.104; as for GANAB (UniProt Q14697), inactive: 0.345; as for GATA2 (UniProt P23769), inactive: 0.139.

Consider GGA1 isoform 6 (UniProt Q9UJY5), for which the log2 fold change was inactive: -0.005. The same measure for GHITM (UniProt Q9H3K2): inactive: 0.033; for FUBP1 isoform 2 (UniProt Q96AE4): inactive: 0.011; for GET4 (UniProt Q7L5D6): inactive: 0.01. As for FOXJ3 (UniProt Q9UPW0), the figure is inactive: -0.016; as for FOSL1 (UniProt P15407), inactive: -0.064; as for G3BP2 (UniProt Q9UN86), inactive: 0.137.

Consider FXR2 (UniProt P51116), for which the log2 fold change was inactive: 0.072.

Consider FRG1 (UniProt Q14331), for which the log2 fold change is inactive: 0.083. For FUOM (UniProt A2VDF0), the log2 fold change was inactive: 0.206. As for FXR1 (UniProt P51114), the figure is inactive: 0.199; as for GGNBP2 (UniProt Q9H3C7), inactive: -0.007. For GFM2 (UniProt Q969S9), the log2 fold change was inactive: 0.111. The same measure for GART (UniProt P22102): inactive: 0.045.
